# Results as given in PubChem BioAssay AID493014 (National Center for Advancing Translational Sciences (NCATS), 2011).
# This is one part of the list. The main result of the screen is listed elsewhere. These columns were measured beside it and carry no call. Most of these compounds were active or inconclusive in the main read-out, so they are no random draw. Potencies come from curve fits of mixed quality, noted in brackets.
# Assay: qHTS Assay to Find Inhibitors of Chronic Active B-Cell Receptor Signaling
# Settings: ABC-DLBCL IkBa-CBG/CBR reporter, luminescence ratio (green luciferase fused to IkBa over red control in TMD8 lymphoma cells), 4 h; measured here: CBR red luminescence, cell number
# In short: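 Cell line TMD8 (human ABC DLBCL), stably expressing tet-inducible CBG68-IkBa fusion and CBR; IMDM/0.5% FBS; cpd up to 46 uM; dox induction, 4 h, 37C/5% CO2; dual luminescence; green/red ratio; MG132 control.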
row,Compound,AC50
1,COc1c(C)cc(C(=O)C2CCCN(Cc3cccc4nccnc34)C2)cc1C (stereo not drawn),"2.82 µM [rising, full curve, poor fit]"
2,CCNC(=O)C(=O)Nc1ccc(OC)c(Cl)c1,"6.31 µM [rising, partial curve, poor fit]"
3,O=C(CCN1CCN(C(c2ccccc2)c2ccccc2)CC1)N/N=C/c1ccc(O)cc1O,"18.4 µM [falling, partial curve]"
4,CCn1c(=O)c(CCC(=O)NCC2CCCO2)c(C)c2c(C)nn(-c3ccccc3)c21 (stereo not drawn),"28.2 µM [falling, single point]"
5,CC(=O)Nc1c(O)nc(SCC(=O)Nc2cccc(C)c2)[nH]c1=O,"0.103 µM [falling, full curve, poor fit]"
6,C[C@@H]1NC(=O)N(CCCn2ccnc2)C1=O,"35.5 µM [rising, single point]"
7,COc1ccc(NC(=O)c2cccc(OS(=O)(=O)N(C)C)c2)cc1,"20 µM [falling, partial curve, poor fit]"
8,CCCS(=O)(=O)n1nc(-c2ccc(Br)cc2)cc1N,"0.103 µM [rising, full curve, poor fit]"
9,Cc1nn(-c2ccccc2)c2sc(-c3nnc(SCC(=O)O)o3)cc12,"8.2 µM [falling, partial curve, poor fit]"
10,CC1=NN(C(=O)c2ccc(Cl)cc2)C(O)(c2ccccc2)C1 (stereo not drawn),"35.5 µM [falling, single point]"
11,Cc1ncoc1C(=O)N1CCc2c([nH]c3ccccc23)C1C1CCCCC1 (stereo not drawn),"3.98 µM [falling, partial curve, poor fit]"
12,COC(=O)c1ccccc1NC(=O)CN1CCC(C(=O)c2ccc3c(c2)OCCO3)CC1,"11.2 µM [falling, single point]"
13,Cc1ccc(N2CCN(c3ccc(C)cc3)C2c2ccncc2)cc1,"10 µM [rising, partial curve, poor fit]"
14,Cc1ccc(NC(=O)c2ccsc2)cc1NS(C)(=O)=O,"5.01 µM [rising, full curve, poor fit]"
15,CCCCSCCCNC(=O)c1ccc2c(c1)N(CC)C(=O)c1ccccc1S2=O (stereo not drawn),"22.4 µM [falling, partial curve, poor fit]"
16,Cc1ccc(NC(=S)Nc2cccc3ccccc23)cc1F,"1.41 µM [falling, full curve, poor fit]"
17,O=C(NCCC(=O)N1CCCC(C(F)(F)F)C1)c1ccccc1Cl (stereo not drawn),"35.5 µM [falling, single point]"
18,COC(=O)c1c(NC(=O)Cc2ccccc2)sc2c1C(C(=O)OC)CC2 (stereo not drawn),"12.6 µM [rising, single point]"

# Quoted at random: two compounds from above.
row,Compound,AC50
1,COc1c(C)cc(C(=O)C2CCCN(Cc3cccc4nccnc34)C2)cc1C (stereo not drawn),"2.82 µM [rising, full curve, poor fit]"
15,CCCCSCCCNC(=O)c1ccc2c(c1)N(CC)C(=O)c1ccccc1S2=O (stereo not drawn),"22.4 µM [falling, partial curve, poor fit]"
